For part of these data: Expression grades refer to the transcript from which the peptide derives; gene names, where given, were looked up from the sequence.
Key:
Set-up in all cases: species or system human
[1] = system: HLA-A*24 molecules of primary tumors; assay: Identification and relative LC-MS quantitation of HLA-A*24 tumor-associated peptides presented on tissue samples (XPRESIDENT presentation profiles); details: for ENTITIES: Table 9A: selected HLA-A*24-binding tumor-associated peptides, cancer entities on which the peptide was found presented
[2] = system: source genes of selected peptides; assay: Expression profiling of source genes by in-house RNAseq, tumor vs normal tissues (target coverage); details: for Target coverage, over-expression of source gene, AML: AML (N = 7), over-expression = more than 1.5-fold higher expression on tumor vs highest-expressing relevant normal tissue; for Target coverage, over-expression of source gene, AML / Target coverage, over-expression of source gene, BRCA / Target coverage, over-expression of source gene, CLL / Target coverage, over-expression of source gene, CRC / Target coverage, over-expression of source gene, GB / Target coverage, over-expression of source gene, HCC / Target coverage, over-expression of source gene, OC / Target coverage, over-expression of source gene, OSCAR / Target coverage, over-expression of source gene, PC / Target coverage, over-expression of source gene, RCC / Target coverage, over-expression of source gene, SCLC / Target coverage, over-expression of source gene, pNSCLC: in-house RNASeq; for Target coverage, over-expression of source gene, BRCA: BRCA (N = 10); for Target coverage, over-expression of source gene, BRCA / Target coverage, over-expression of source gene, CLL / Target coverage, over-expression of source gene, CRC / Target coverage, over-expression of source gene, GB / Target coverage, over-expression of source gene, HCC / Target coverage, over-expression of source gene, OC / Target coverage, over-expression of source gene, OSCAR / Target coverage, over-expression of source gene, PC / Target coverage, over-expression of source gene, RCC / Target coverage, over-expression of source gene, SCLC / Target coverage, over-expression of source gene, pNSCLC: over-expression = more than 1.5-fold vs highest normal tissue; for Target coverage, over-expression of source gene, CLL: CLL (N = 10); for Target coverage, over-expression of source gene, CRC: CRC (N = 20); for Target coverage, over-expression of source gene, GB: GB (N = 24); for Target coverage, over-expression of source gene, HCC: HCC (N = 15); for Target coverage, over-expression of source gene, OC: OC (N = 12); for Target coverage, over-expression of source gene, OSCAR: OSCAR (N = 11); for Target coverage, over-expression of source gene, PC: PC (N = 26); for Target coverage, over-expression of source gene, RCC: RCC (N = 10); for Target coverage, over-expression of source gene, SCLC: SCLC (N = 10); for Target coverage for source genes of selected peptides, GBC_CCC (N = 10): gallbladder adenocarcinoma and cholangiocarcinoma; for Target coverage for source genes of selected peptides, GBC_CCC (N = 10) / Target coverage for source genes of selected peptides, GC (N = 11) / Target coverage for source genes of selected peptides, HNSCC (N = 10) / Target coverage for source genes of selected peptides, MEL (N = 10) / Target coverage for source genes of selected peptides, NHL (N = 10) / Target coverage for source genes of selected peptides, PCA (n = 10) / Target coverage for source genes of selected peptides, UBC (N = 10) / Target coverage for source genes of selected peptides, UTC (N = 10): share of tumors with more than 1.5-fold higher expression than the highest-expressing relevant normal tissue, in-house RNAseq; for Target coverage for source genes of selected peptides, GC (N = 11): gastric cancer; for Target coverage for source genes of selected peptides, HNSCC (N = 10): head and neck small cell carcinoma; for Target coverage for source genes of selected peptides, MEL (N = 10): melanoma; for Target coverage for source genes of selected peptides, NHL (N = 10): non-Hodgkin lymphoma; for Target coverage, over-expression of source gene, pNSCLC: pNSCLC (N = 11); for Target coverage for source genes of selected peptides, PCA (n = 10): prostate cancer and benign prostate hyperplasia; for Target coverage for source genes of selected peptides, UBC (N = 10): urinary bladder cancer; for Target coverage for source genes of selected peptides, UTC (N = 10): uterine cancer
[3] = system: source genes of selected peptides; assay: Target coverage of source genes in tumor entities based on TCGA Research Network data; details: over-expressed = more than 2-fold above the highest 75% percentile of normal organs; for Target coverage, over-expression category of source gene, BLCA (N = 408): Bladder urothelial carcinoma; for Target coverage, over-expression category of source gene, CESC (N = 307): Cervical squamous cell carcinoma and endocervical adenocarcinoma; for Target coverage, over-expression category of source gene, HNSC (N = 521): Head and neck squamous cell carcinoma; for Target coverage, over-expression category of source gene, DLBC (N = 48): Lymphoid neoplasm diffuse large B-cell lymphoma; for Target coverage, over-expression category of source gene, MESO (N = 87): Mesothelioma

Substance	ENTITIES [1]	Target coverage, over-expression of source gene, AML [2]	Target coverage, over-expression of source gene, BRCA [2]	Target coverage, over-expression of source gene, CLL [2]	Target coverage, over-expression of source gene, CRC [2]	Target coverage, over-expression of source gene, GB [2]	Target coverage, over-expression of source gene, HCC [2]	Target coverage, over-expression of source gene, OC [2]	Target coverage, over-expression of source gene, OSCAR [2]	Target coverage, over-expression of source gene, PC [2]	Target coverage, over-expression of source gene, RCC [2]	Target coverage, over-expression of source gene, SCLC [2]	Target coverage for source genes of selected peptides, GBC_CCC (N = 10) [2]	Target coverage for source genes of selected peptides, GC (N = 11) [2]	Target coverage for source genes of selected peptides, HNSCC (N = 10) [2]	Target coverage for source genes of selected peptides, MEL (N = 10) [2]	Target coverage, over-expression category of source gene, BLCA (N = 408) [3]	Target coverage, over-expression category of source gene, CESC (N = 307) [3]	Target coverage, over-expression category of source gene, HNSC (N = 521) [3]	Target coverage, over-expression category of source gene, DLBC (N = 48) [3]	further results
100: peptide found in KIF20A (gene looked up) (VYIESRIGTSTSF; listed as Homo sapiens) [compound 100]	GB, HCC, NSCLC, GC	I (<19% over-expression = I)	II (20-49% = II)	I (<19% over-expression = I)	I (<19% over-expression = I)	I (<19% over-expression = I)	I (<19% over-expression = I)	II (20-49% = II)	II (20-49% = II)	I (<19% over-expression = I)	I (<19% over-expression = I)	II (20-49% = II)	I (<19% over-expression = I)	I (<19% over-expression = I)	I (<19% over-expression = I)	II (20-49% = II)	B (>=20% of tumors above the cutoff, but <50%)	A (>=50% of tumors above the cutoff)	B (>=20% of tumors above the cutoff, but <50%)	C (>=5% of tumors above the cutoff, but <20%)	Target coverage for source genes of selected peptides, NHL (N = 10) [2]: I (<19% over-expression = I); Target coverage, over-expression of source gene, pNSCLC [2]: I (<19% over-expression = I); Target coverage for source genes of selected peptides, PCA (n = 10) [2]: I (<19% over-expression = I); Target coverage for source genes of selected peptides, UBC (N = 10) [2]: I (<19% over-expression = I); Target coverage for source genes of selected peptides, UTC (N = 10) [2]: I (<19% over-expression = I); Target coverage, over-expression category of source gene, ACC (N = 79) ([3]; Adrenocortical carcinoma): C (>=5% of tumors above the cutoff, but <20%); Target coverage, over-expression category of source gene, MESO (N = 87) [3]: B (>=20% of tumors above the cutoff, but <50%)
105: peptide found in CENPE (gene looked up) (IYNETITDLL; listed as Homo sapiens) [compound 105]	GC, GB, HCC, NSCLC	–	–	–	–	–	–	–	–	–	–	–	I (<19% over-expression = I)	I (<19% over-expression = I)	I (<19% over-expression = I)	I (<19% over-expression = I)	B (>=20% of tumors above the cutoff, but <50%)	A (>=50% of tumors above the cutoff)	B (>=20% of tumors above the cutoff, but <50%)	B (>=20% of tumors above the cutoff, but <50%)	Target coverage for source genes of selected peptides, NHL (N = 10) [2]: I (<19% over-expression = I); Target coverage for source genes of selected peptides, PCA (n = 10) [2]: I (<19% over-expression = I); Target coverage for source genes of selected peptides, UBC (N = 10) [2]: I (<19% over-expression = I); Target coverage for source genes of selected peptides, UTC (N = 10) [2]: I (<19% over-expression = I)
106: peptide found in KIFC1 (gene looked up) (IYNETVRDLL; listed as Homo sapiens) [compound 106]	GC, GB, NSCLC	I (<19% over-expression = I)	I (<19% over-expression = I)	I (<19% over-expression = I)	I (<19% over-expression = I)	I (<19% over-expression = I)	I (<19% over-expression = I)	II (20-49% = II)	I (<19% over-expression = I)	I (<19% over-expression = I)	I (<19% over-expression = I)	I (<19% over-expression = I)	–	–	–	–	B (>=20% of tumors above the cutoff, but <50%)	A (>=50% of tumors above the cutoff)	B (>=20% of tumors above the cutoff, but <50%)	A (>=50% of tumors above the cutoff)	Target coverage, over-expression of source gene, pNSCLC [2]: I (<19% over-expression = I)
110: peptide found in FANCD2 (gene looked up) (SYPKIIEEF; listed as Homo sapiens) [compound 110]	GB, HCC, NSCLC, GC	I (<19% over-expression = I)	I (<19% over-expression = I)	III (50-69% = III)	I (<19% over-expression = I)	I (<19% over-expression = I)	I (<19% over-expression = I)	I (<19% over-expression = I)	I (<19% over-expression = I)	I (<19% over-expression = I)	I (<19% over-expression = I)	I (<19% over-expression = I)	I (<19% over-expression = I)	I (<19% over-expression = I)	I (<19% over-expression = I)	I (<19% over-expression = I)	B (>=20% of tumors above the cutoff, but <50%)	A (>=50% of tumors above the cutoff)	C (>=5% of tumors above the cutoff, but <20%)	A (>=50% of tumors above the cutoff)	Peptide Presentation on cancer entities ([1]; Table 9B: selected HLA-A*24 peptides, presentation on additional cancer entities): PCA; Target coverage for source genes of selected peptides, NHL (N = 10) [2]: II (20-49% = II); Target coverage, over-expression of source gene, pNSCLC [2]: I (<19% over-expression = I); Target coverage for source genes of selected peptides, PCA (n = 10) [2]: I (<19% over-expression = I); Target coverage for source genes of selected peptides, UBC (N = 10) [2]: I (<19% over-expression = I); Target coverage for source genes of selected peptides, UTC (N = 10) [2]: I (<19% over-expression = I); Target coverage, over-expression category of source gene, MESO (N = 87) [3]: C (>=5% of tumors above the cutoff, but <20%)
